Values joined by “and” are separate entries in the source; they are usually repeats but may differ in a detail not shown here. Equal values may be shown once. Some entries share one result that the patent states for a list of compounds. For at least one compound, name, drawing or mass did not settle the structure.
Columns and labels:
histamine H3 receptor = target: T1, histamine H3 receptor (Homo sapiens, UniProt Q9Y5N1); experiment: Histamine H3 functional antagonist assay (method A), [35S]-GTPγS SPA on membranes; format: biochemical
T1 construct: expressed in transfected cells; host or cells: CHO K1 cells carrying pSwitch, transfected with pGeneH3; mifepristone-induced; clone 3H3; membranes

Sequences of proteins named here, by UniProt entry; tags and fusion partners are left off. A change or cut given only in a name is not applied to a line headed by its entry.
UniProt Q9Y5N1: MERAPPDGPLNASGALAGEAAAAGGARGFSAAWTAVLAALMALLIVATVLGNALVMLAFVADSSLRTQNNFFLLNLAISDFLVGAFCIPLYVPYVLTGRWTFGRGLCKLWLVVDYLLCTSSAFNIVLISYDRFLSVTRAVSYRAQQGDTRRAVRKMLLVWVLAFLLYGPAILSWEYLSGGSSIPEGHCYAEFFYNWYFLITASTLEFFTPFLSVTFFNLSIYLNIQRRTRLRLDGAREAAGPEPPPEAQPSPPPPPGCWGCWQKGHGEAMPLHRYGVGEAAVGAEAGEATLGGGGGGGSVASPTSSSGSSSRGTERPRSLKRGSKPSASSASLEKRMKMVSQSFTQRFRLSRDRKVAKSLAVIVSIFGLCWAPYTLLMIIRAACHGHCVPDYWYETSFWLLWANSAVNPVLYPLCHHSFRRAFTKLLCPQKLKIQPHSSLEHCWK
UniProt P35367, whole entry: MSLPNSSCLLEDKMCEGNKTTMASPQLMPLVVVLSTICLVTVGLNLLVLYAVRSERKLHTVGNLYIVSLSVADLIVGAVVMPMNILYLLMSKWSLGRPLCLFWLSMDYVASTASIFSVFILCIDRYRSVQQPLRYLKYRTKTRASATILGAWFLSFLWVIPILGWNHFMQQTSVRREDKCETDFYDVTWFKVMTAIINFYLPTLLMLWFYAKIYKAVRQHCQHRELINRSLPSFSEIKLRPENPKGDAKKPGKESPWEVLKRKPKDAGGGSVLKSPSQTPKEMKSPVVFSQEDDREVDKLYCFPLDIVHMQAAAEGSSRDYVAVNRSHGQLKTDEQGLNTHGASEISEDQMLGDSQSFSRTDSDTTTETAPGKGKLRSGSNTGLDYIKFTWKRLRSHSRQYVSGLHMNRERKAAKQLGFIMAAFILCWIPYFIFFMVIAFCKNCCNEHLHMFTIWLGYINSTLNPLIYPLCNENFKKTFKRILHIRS

human H1 receptor = target: T2, human H1 receptor (Homo sapiens, UniProt P35367); experiment: Histamine H1 functional antagonist assay (FLIPR, cell fluorescence); format: cell-based; settings: CHO cells expressing human H1 receptor, histamine at EC80
T2 construct: expressed in transfected cells

| Compound | antagonism in the histamine H3 functional antagonist assay (method A) (histamine H3 receptor; histamine at EC80) | antagonism in the histamine H1 functional antagonist assay (human H1 receptor) | antagonism in the histamine H3 functional antagonist assay (method A) (histamine H3 receptor; histamine at EC80, trifluoroacetate salt) |
| --- | --- | --- | --- |
| CNC(=O)c1ccc(N2CCC(c3ccc4c(c3)CCN(C3CCCC3)CC4)CC2)nc1 [Example E230, 6-[4-(3-cyclopentyl-2,3,4,5-tetrahydro-1H-3-benzazepin-7-yl)-1-piperidinyl]-N-methyl-3-pyridinecarboxamide] | > 6.5 pKb | < 6.3 pKb | – |
| O=S(=O)(c1ccccc1)N1CCN(c2ccc3c(c2)CCN(C2CCCC2)CC3)CC1 [Example E73, 3-Cyclopentyl-7-[4-(phenylsulfonyl)-1-piperazinyl]-2,3,4,5-tetrahydro-1H-3-benzazepine] | > 6.5 pKb | < 6.3 pKb | – |
| O=C(O)C(F)(F)F.O=C(c1ccccc1Cl)N1CCN(c2ccc3c(c2)CCN(C2CCCC2)CC3)CC1 [Example E120, 7-{4-[(2-Chlorophenyl)carbonyl]-1-piperazinyl}-3-cyclopentyl-2,3,4,5-tetrahydro-1H-3-benzazepine trifluoroacetate salt] | – | < 6.3 pKb | > 9.0 pKb and > 6.5 pKb |
| O=S(=O)(c1ccccc1Cl)N1CCN(c2ccc3c(c2)CCN(C2CCC2)CC3)CC1 [Example E8, 7-{4-[(2-Chlorophenyl)sulfonyl]-1-piperazinyl}-3-cyclobutyl-2,3,4,5-tetrahydro-1H-3-benzazepine] | > 6.5 pKb and > 9.0 pKb | < 6.3 pKb | – |
| O=S(=O)(c1ccc2ccccc2c1)N1CCN(c2ccc3c(c2)CCN(C2CCCC2)CC3)CC1 [Example E54, 3-Cyclopentyl-7-[4-(2-naphthalenylsulfonyl)-1-pierazinyl]-2,3,4,5-tetrahydro-1H-3-benzazepine] | > 6.5 pKb | < 6.3 pKb | – |
| CN(C)S(=O)(=O)N1CCN(c2ccc3c(c2)CCN(C2CCCC2)CC3)CC1 [Example E36, 4-(3-Cyclopentyl-2,3,4,5-tetrahydro-1H-3-benzazepin-7-yl)-N,N-dimethyl-1-piperazinesulfonamide] | > 6.5 pKb | < 6.3 pKb | – |
| O=S(=O)(c1cccc2cnccc12)N1CCN(c2ccc3c(c2)CCN(C2CCCC2)CC3)CC1 [Example E30, 3-Cyclopentyl-7-[4-(5-isoquinolinylsulfonyl)-1-piperazinyl]-2,3,4,5-tetrahydro-1H-3-benzazepine] | > 6.5 pKb | < 6.3 pKb | – |
| CNC(=O)c1ccc(-c2ccc3c(c2)CCN(C2CCC2)CC3)c(F)c1 [Example E204, 4-(3-Cyclobutyl-2,3,4,5-tetrahydro-1H-3-benzazepin-7-yl)-3-fluoro-N-methylbenzamide] | > 6.5 pKb | < 6.3 pKb | – |
| CNC(=O)c1ccc(Oc2ccc(-c3ccc4c(c3)CCN(C3CCC3)CC4)cc2)nc1 [Example E205, 6-{[4-(3-Cyclobutyl-2,3,4,5-tetrahydro-1H-3-benzazepin-7-yl)phenyl]oxy}-N-methyl-3-pyridinecarboxamide] | > 9.0 pKb and > 6.5 pKb | < 6.3 pKb | – |
| Cc1sc(C(=O)N2CCN(c3ccc4c(c3)CCN(C3CCCC3)CC4)CC2)cc1-c1ccccc1.O=C(O)C(F)(F)F [Example E107, 3-Cyclopentyl-7-{4-[(5-methyl-4-phenyl-2-thienyl)carbonyl]-1-piperazinyl}-2,3,4,5-tetrahydro-1H-3-benzazepine trifluoroacetate salt] | > 6.5 pKb | < 6.3 pKb | – |
| O=C(c1ccc(-c2ccc3c(c2)CCN(C2CCC2)CC3)nc1)N1CCOCC1 [Example E199, 3-Cyclobutyl-7-[5-(4-morpholinylcarbonyl)-2-pyridinyl]-2,3,4,5-tetrahydro-1H-3-benzazepine] | > 6.5 pKb | < 6.3 pKb | – |
| O=C(c1ccc(C(=O)C(F)(F)F)cc1)N1CCN(c2ccc3c(c2)CCN(C2CCC2)CC3)CC1 [Example E15, 1-(4-{[4-(3-Cyclobutyl-2,3,4,5-tetrahydro-1H-3-benzazepin-7-yl)-1-piperazinyl]carbonyl}phenyl)-2,2,2-trifluoroethanone] | > 9.0 pKb and > 6.5 pKb | < 6.3 pKb | – |
| N#Cc1cccc(N2CCC(c3ccc4c(c3)CCN(C3CCC3)CC4)CC2)c1 [Example E223, 3-[4-(3-cyclobutyl-2,3,4,5-tetrahydro-1H-3-benzazepin-7-yl)-1-piperidinyl]benzonitrile] | > 9.0 pKb and > 6.5 pKb | < 6.3 pKb | – |
| O=S(=O)(/C=C/c1ccccc1)N1CCN(c2ccc3c(c2)CCN(C2CCCC2)CC3)CC1 [Example E56, 3-Cyclopentyl-7-(4-{[(E)-2-phenylethenyl]sulfonyl}-1-piperazinyl)-2,3,4,5-tetrahydro-1H-3-benzazepine] | > 6.5 pKb | < 6.3 pKb | – |
| O=C(C1CCOCC1)N1CCN(c2ccc3c(c2)CCN(C2CCC2)CC3)CC1 [Example E5, 3-Cyclobutyl-7-[4-(tetrahydro-2H-pyran-4-ylcarbonyl)-1-piperazinyl]-2,3,4,5-tetrahydro-1H-3-benzazepine] | > 6.5 pKb | < 6.3 pKb | – |
| O=S(=O)(Cc1ccccc1)N1CCN(c2ccc3c(c2)CCN(C2CCCC2)CC3)CC1 [Example E39, 3-Cyclopentyl-7-{4-[(phenylmethyl)sulfonyl]-1-piperazinyl}-2,3,4,5-tetrahydro-1H-3-benzazepine] | > 6.5 pKb | < 6.3 pKb | – |
| N#Cc1ccc(-c2ccc3c(c2)CCN(C2CCC2)CC3)o1 [Example E201, 5-(3-Cyclobutyl-2,3,4,5-tetrahydro-1H-3-benzazepin-7-yl)-2-furancarbonitrile] | > 6.5 pKb | < 6.3 pKb | – |
| CC(C)c1ccc(S(=O)(=O)N2CCN(c3ccc4c(c3)CCN(C3CCCC3)CC4)CC2)cc1 [Example E57, 3-Cyclopentyl-7-(4-{[4-(1-methylethyl)phenyl]sulfonyl}-1-piperazinyl)-2,3,4,5-tetrahydro-1H-3-benzazepine] | – | < 6.3 pKb | – |
| Cn1ccnc1CC(=O)N1CCN(c2ccc3c(c2)CCN(C2CCCC2)CC3)CC1 [Example E189, 3-Cyclopentyl-7-{4-[(1-methyl-1H-imidazol-2-yl)acetyl]-1-piperazinyl}-2,3,4,5-tetrahydro-1H-3-benzazepine] | > 6.5 pKb | – | – |
| O=C(c1ccc2nonc2c1)N1CCN(c2ccc3c(c2)CCN(C2CCCC2)CC3)CC1 [Example E184, 7-[4-(2,1,3-Benzoxadiazol-5-ylcarbonyl)-1-piperazinyl]-3-cyclopentyl-2,3,4,5-tetrahydro-1H-3-benzazepine] | > 9.0 pKb and > 6.5 pKb | – | – |
